Data on 1 molecule can be found in patent US20050070699A1.

No constants are given. Whether binding was seen depends on the method and setting. Some binding calls cover weakened binding; strength is not graded here.

Test [1] addresses T1, cytoplasmic domain of Zmax1 (LRP5), yeast two hybrid bait (Homo sapiens (Human)) (UniProt O75197).
T1 sequence: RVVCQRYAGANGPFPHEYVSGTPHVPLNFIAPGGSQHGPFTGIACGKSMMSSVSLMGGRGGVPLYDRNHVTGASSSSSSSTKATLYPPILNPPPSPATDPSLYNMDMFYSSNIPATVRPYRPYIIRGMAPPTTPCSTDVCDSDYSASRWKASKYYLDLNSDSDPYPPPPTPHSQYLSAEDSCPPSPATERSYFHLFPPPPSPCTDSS
The test can be described thus: yeast two hybrid; bait: cytoplasmic domain of Zmax1 (LRP5); prey cDNA libraries (brain, HeLa, TE85).

The target in test [2] is T1, cytoplasmic domain of Zmax1 (LRP5), yeast two hybrid bait (Homo sapiens (Human)). The test can be described thus: yeast two hybrid.

B1: PINCH-like protein (Novel) (protein)
chain: STGSEFPLCTKASPCSAARAGGRALGWRLQQQRETRGNPGNPGLGVAATMTGSNMSDALANAVCQRCQARFSPAERIVNSNGELYHEHCFVCAQCFRPFPEGLFYEFEGRKYCEHDFQMLFAPCCGSCGEFIIGRVIKAMNNNWHPGCFRCELCDVELADLGFVKNAGRHLCRPCHNREKAKGLGKYICQRCHLVIDEQPLMFRSDAYHPDHFNCTHCGKELTAEARELKGELYCLPCHDKMGVPICGACRRPIEGRVVNALGKQWHVEHFVCAKCEKPFLGHRHYEKKGLAYCEL
Regarding B1, the binding result in test [1] and in test [2] was “binds” in each case.
